Test results published in a melting point compilation (Tetko et al.; mined from patent text by program, amines drawn as free bases though some values may be those of a salt).

O=C(Nc1ccc(OCc2ccccn2)nc1)N1CCc2cc(Br)ccc21
melting point: 138 to 139 °C
